Data published in publication PMC10163288.
The list shows a part of the results.

B1: il2ra_site2_2erj_normal_mot_HHH_b2_06411_000000092_0001_40_56_H_._HHH_b1_05737_0001_0000100003_0000001_0 (protein)
chain: SSSSDLEEVYELAVEALRLLAEGNPEEAEEVLKKAREILEEAGNDEAVRFLEELFEMFERSSSSS
B2: il2ra_site1_2b5i_normal_mot_HHH_b1_00432_000000039_0001_1_18_H_._HHH_b1_02735_0001_0000300013_0000001_0_af2pred_dldesign_0_af2pred (protein)
chain: SSSSSSDEEIEAAEDLALQALKEKDKEKRKELLEEALRLAQKGKDAKLVAQIQELLERLKSSSSS
B3: il2ra_site2_2erj_sap_24_mot_35d2dc24e2c4431f89e6f806b163ecf8_0001_af2_000000103_0001_35_49_H_._HHH_b1_00970_af2_0001_0000300014_0000001_0_0001_af2pred_0001_af2p … (protein)
chain: SSSSSDEEEIKKRVEELLEEAEKIKNIREALKVLEEADELALKIDDEELLQEVDEVLQKLSSSSS
B4: il2ra_site1_1z92_sap_21_mot_HHH_b1_06433_af2_000000071_0001_43_55_H_._1be45adfb33e20f6866665fef51ac9fc_0001_1_af2_0001_0000300007_0000001_0_0001_af2pred_0001_af … (protein)
chain: TKVSVEEAREEAGGDPEAAVEILLRIIEEQTDAPPRNAIIFLRILARKLGDPEIEEILEELQRRR
B5: il2ra_site1_1z92_sap_10_mot_ae822554cddc87a57d04fcdb10ee4bf1_0001_1_000000099_0001_1_12_H_._HHH_b2_05903_0001_0000100002_0000001_0_0001_af2pred_0001_af2pred_1 (protein)
chain: SSSSSEENTARIIVEILVKLAGLSEEQEEELERLLKELLERGVDLLEISRRLDELALKLESSSSS
B6: il2ra_site1_3nfp_sap_18_mot_HHH_b2_02028_000000257_0001_1_17_H_._HHH_b2_00444_0001_0000100001_0000001_0_0001 (protein)
chain: SSSSSRFEELLRLDRELWEARRRGDEELARELLELLKELAEENNDKILKRLLKQWEENLKSSSSS
B7: il2ra_site1_3nfp_normal_mot_ems_3hC_1630_0002_af2_000000235_0001_1_19_H_._HEEHE_3092_0001_0000100023_0000001_0 (protein)
chain: SAEKLAEFLARSLKKDAGVESVEVEVRDQRLSVTFKGNDEAVEYAARLVRFFAEQAGVPVEIETE
B8: il2ra_site2_3nfp_sap_27_mot_HHH_b1_07198_000000084_0001_1_18_H_._311205a5f7018ed2e03f51fd3ffd5b95_0001_0001_0000200033_0000001_0_0001 (protein)
chain: PVEELVREVAEILGDPRFEEVVEERLERLKKEGNEEALKYIEAALALIVRHNDPRLAQTLLELLD
B9: il2ra_site1_2b5i_normal_mot_HHH_b2_04910_000000118_0001_1_19_H_._HHH_b1_02561_af2_0001_0000500020_0000001_0_af2pred_dldesign_0_af2pred (protein)
chain: SSSSSPVGEELRRLLEEAERLKKAGKDEEAKRLLEEALRLAREANLPRAARFIELALEQLESSSS
B10: il2ra_site1_1z92_sap_17_mot_HHH_b1_05516_af2_000000202_0001_21_38_H_._HHH_b1_03395_0001_0000300017_0000001_0_0001 (protein)
chain: SSSSDKQLEYLEEQIRRALERGSKRLAQRLIEMVRRIAEDADDDEAKRVAEELQQILEELSSSSS
B11: il2ra_site1_1z92_sap_32_mot_HHH_b1_01261_af2_000000008_0001_1_19_H_._HHH_b1_04539_0001_0000800054_0000001_0_0001 (protein)
chain: DKTNIKDVLWLVKLHPPEKVLRRLEKSAERSDDPSWRRASEILEEALRRANGDPEEVERLLEELR
B12: il2ra_site2_3nfp_normal_mot_HHH_b2_07946_000000046_0001_20_36_H_._HHH_b1_00607_af2_0001_0000200042_0000001_0 (protein)
chain: SSSSSDEEEVEKLEQEIEKAREEGDEEAVRELLKRVSDLAYKLGDFELFARVADLLLELLSSSSS
B13: il2ra_site2_3nfp_normal_mot_HHH_b2_05281_000000198_0001_39_56_H_._HHH_b1_08050_af2_0001_0000600029_0000001_0 (protein)
chain: SSSSSEELEELLKRLEELLKEGDEEEFRRLLAEIVHLAFKLNDPRIFYLVAELAFEFHQRESSSS
B14: il2ra_site2_3nfp_normal_mot_HHH_b2_06150_000000217_0001_39_53_H_._HHH_b1_00332_0001_0000300020_0000001_0 (protein)
chain: SSSSDEEELEQLLEELRRLVEENDEERARRLIARITHLAFELRDSRVFYLLAELLYLLVRLSSSS
B15: il2ra_site1_2b5i_sap_15_mot_HHH_b2_04274_000000042_0001_1_19_H_._HHH_b2_02498_0001_0000200018_0000001_0_0001 (protein)
chain: SSSSSEKTRRALELFREADEADRRGNPEEAQELLEEALRVAEEGGSRALFRMIRAALEQVSSSSS
B16: il2ra_site1_3nfp_normal_mot_HHH_b1_06045_af2_000000189_0001_3_17_H_._a9b97edc58e4c613f9eb791f71029db3_0001_1_0001_0000300028_0000001_0_af2pred_0001_af2pred_1_sw … (protein)
chain: SLEEKLEELLKRDVEEAIRLVERVVRELLEEGDPQEASKVLELAIRLAAELDDPELSEALFELAR
B17: il2ra_site2_3nfp_sap_18_mot_HHH_b1_04429_af2_000000130_0001_1_18_H_._HHH_b2_06954_0001_0001000014_0000001_0_0001 (protein)
chain: PEVSTILMKLKEEDPNNELAFELFALLAEAWHRGDEELEERLKEAAELLEEGDPERAEELLERLK
B18: il2ra_site1_2b5i_normal_mot_HHH_b1_00095_000000042_0001_1_14_H_._HHH_b1_08235_0001_0000200009_0000001_0_af2pred_dldesign_0_af2pred (protein)
chain: SSSSLKEKLNELQRIADRLAELGAEEEFDEVYDLALEFSRTKDESLLERARALLARAEAESSSSS
B19: il2ra_site2_3nfp_normal_mot_HHH_b2_06150_000000217_0001_39_53_H_._HHH_b2_05784_af2_0001_0000100004_0000001_0 (protein)
chain: SSSSDRERVEELLERAEEKFERGDEEEVRRLLAEATKLAYENRDSELFFLVAEVLFRLAQNSSSS

These binders were tested against il2ra, P01589 (assay: yeast display titration).

Apparent Kd, inactive:
B1 no binding seen
B2 no binding seen
B3 no binding seen
B4 no binding seen
B5 no binding seen
B6 no binding seen
B7 no binding seen
B8 no binding seen
B9 no binding seen
B10 no binding seen
B11 no binding seen
B12 no binding seen
B13 no binding seen
B14 no binding seen
B15 no binding seen
B16 no binding seen
B17 no binding seen
B18 no binding seen
B19 no binding seen

Reprinted at random: 2 records from the list, in no set order.
Apparent Kd, inactive:
B5 no binding seen
B12 no binding seen
